# Experimental data reported in the supplement of paper PMC11732987, “Enantioselective OTUD7B fragment discovery through chemoproteomics screening and high-throughput optimisation” (Communications Chemistry, 2025).
# Sequences of proteins named here, by UniProt entry; tags and fusion partners are left off. A change or cut given only in a name is not applied to a line headed by its entry.
# UniProt Q14573: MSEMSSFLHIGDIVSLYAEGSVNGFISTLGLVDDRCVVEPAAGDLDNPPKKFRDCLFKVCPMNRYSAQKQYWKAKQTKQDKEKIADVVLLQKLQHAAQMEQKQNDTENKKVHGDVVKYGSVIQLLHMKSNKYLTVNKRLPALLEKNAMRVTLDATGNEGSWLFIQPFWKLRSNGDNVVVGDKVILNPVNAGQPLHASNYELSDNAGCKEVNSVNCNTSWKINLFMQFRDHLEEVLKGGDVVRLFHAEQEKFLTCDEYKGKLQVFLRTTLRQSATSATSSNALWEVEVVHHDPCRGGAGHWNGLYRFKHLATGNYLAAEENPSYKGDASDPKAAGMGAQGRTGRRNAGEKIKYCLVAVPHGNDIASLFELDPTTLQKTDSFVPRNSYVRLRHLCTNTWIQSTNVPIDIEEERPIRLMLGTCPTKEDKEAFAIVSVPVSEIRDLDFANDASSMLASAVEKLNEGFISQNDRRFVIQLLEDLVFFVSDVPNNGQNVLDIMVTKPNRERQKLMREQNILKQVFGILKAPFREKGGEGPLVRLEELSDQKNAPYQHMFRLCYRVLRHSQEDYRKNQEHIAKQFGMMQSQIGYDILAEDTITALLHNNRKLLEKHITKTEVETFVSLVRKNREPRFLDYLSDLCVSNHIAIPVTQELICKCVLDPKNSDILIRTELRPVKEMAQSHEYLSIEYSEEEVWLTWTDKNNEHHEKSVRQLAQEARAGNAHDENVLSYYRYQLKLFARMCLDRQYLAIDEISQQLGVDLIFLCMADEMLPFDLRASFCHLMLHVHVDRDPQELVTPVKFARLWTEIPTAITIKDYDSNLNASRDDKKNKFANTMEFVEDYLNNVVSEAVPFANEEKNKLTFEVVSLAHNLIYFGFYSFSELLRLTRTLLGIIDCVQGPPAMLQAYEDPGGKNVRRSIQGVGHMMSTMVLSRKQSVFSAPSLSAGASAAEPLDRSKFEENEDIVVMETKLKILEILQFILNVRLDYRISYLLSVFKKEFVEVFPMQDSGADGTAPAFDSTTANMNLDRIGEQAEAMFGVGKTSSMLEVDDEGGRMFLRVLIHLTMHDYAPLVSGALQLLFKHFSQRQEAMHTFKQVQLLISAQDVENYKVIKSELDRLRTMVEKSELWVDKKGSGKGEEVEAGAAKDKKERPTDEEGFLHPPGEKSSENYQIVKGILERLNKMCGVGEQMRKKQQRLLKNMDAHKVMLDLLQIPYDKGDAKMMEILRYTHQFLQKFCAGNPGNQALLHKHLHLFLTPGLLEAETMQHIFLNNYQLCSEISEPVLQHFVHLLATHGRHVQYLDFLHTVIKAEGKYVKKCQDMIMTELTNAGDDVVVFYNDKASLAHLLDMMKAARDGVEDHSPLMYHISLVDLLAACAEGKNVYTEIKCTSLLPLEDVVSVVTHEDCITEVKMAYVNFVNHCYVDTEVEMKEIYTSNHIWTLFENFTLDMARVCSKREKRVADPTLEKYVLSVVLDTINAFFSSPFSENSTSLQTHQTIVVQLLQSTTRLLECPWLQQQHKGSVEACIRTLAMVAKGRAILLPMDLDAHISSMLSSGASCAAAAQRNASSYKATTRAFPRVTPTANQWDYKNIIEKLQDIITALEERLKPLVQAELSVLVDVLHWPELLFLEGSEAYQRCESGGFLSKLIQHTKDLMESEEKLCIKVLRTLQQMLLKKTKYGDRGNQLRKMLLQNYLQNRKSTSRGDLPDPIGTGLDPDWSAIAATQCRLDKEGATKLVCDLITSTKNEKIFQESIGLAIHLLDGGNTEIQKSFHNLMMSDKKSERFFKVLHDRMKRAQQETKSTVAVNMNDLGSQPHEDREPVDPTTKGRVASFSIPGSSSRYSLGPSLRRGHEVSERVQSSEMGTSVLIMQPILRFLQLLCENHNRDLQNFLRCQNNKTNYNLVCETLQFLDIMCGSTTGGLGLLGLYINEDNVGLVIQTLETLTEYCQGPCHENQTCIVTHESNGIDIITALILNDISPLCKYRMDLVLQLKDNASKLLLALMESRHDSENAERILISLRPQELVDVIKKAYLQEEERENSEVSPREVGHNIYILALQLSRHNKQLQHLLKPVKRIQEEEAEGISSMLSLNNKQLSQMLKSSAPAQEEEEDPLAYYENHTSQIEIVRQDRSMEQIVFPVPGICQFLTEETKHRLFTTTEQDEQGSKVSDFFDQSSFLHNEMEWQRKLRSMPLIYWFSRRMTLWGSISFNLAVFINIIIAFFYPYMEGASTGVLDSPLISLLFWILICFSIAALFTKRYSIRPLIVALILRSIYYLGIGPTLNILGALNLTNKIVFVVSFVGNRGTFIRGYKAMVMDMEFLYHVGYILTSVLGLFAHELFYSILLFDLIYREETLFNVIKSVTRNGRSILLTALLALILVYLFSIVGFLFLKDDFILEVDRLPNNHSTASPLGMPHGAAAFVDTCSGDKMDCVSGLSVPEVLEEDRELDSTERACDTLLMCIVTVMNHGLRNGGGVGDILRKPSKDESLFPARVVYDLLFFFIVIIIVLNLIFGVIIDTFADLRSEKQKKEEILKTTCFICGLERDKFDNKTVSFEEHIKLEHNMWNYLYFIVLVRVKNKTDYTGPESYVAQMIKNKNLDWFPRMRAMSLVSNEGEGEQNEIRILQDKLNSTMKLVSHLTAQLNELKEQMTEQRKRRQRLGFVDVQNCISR
# This is one part of the list. The data scatter; read single values as rough.
# Target: T1, ITPR3 C1375 (UniProt Q14573)
# T1 sequence (whole entry): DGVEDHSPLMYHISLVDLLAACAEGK
# Assay: log2 mean competition ratio of IA-DTB cysteine labelling (DMSO/compound) (log2 ratio); higher = stronger cysteine engagement by compound
# Details: 50 µM; treatment time: 4 h; cell line lysate: HEK293T
# Procedure: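 IA-DTB competitive cysteine chemoproteomics in HEK293T RIPA lysate. Lysates were treated with compound 29 or 30 at 50 or 200 µM for 4 h, then IA-DTB (500 µM, 1 h), trypsin-digested, NeutrAvidin-enriched and analysed by diaPASEF. Competition ratio = intensity DMSO / intensity compound (n=4 treated, n=64 DMSO); binding: mean log2 CR ≥ 1 and p ≤ 0.05 plus QC filters. Target is the cysteine site.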
row,Structure (SMILES),log2 mean competition ratio
1,O=C(CCl)N[C@H]1CCCc2ccccc21,0.507
2,O=C(CCl)N[C@@H]1CCCc2ccccc21,-0.203

# Same assay, conditions: 200 µM; treatment time: 4 h; cell line lysate: HEK293T
row,Structure (SMILES),log2 mean competition ratio
1,O=C(CCl)N[C@H]1CCCc2ccccc21,-0.0157
2,O=C(CCl)N[C@@H]1CCCc2ccccc21,-0.0996
